Laboratory results: article doi:10.1101/2020.01.15.907626
These are yes or no findings as the source states them, for the method shown. Binding seen in cells or lysates may run through a third protein. Some binding calls cover weakened binding; strength is not graded here.

Sequences of proteins named here, by UniProt entry; tags and fusion partners are left off.
UniProt Q15554: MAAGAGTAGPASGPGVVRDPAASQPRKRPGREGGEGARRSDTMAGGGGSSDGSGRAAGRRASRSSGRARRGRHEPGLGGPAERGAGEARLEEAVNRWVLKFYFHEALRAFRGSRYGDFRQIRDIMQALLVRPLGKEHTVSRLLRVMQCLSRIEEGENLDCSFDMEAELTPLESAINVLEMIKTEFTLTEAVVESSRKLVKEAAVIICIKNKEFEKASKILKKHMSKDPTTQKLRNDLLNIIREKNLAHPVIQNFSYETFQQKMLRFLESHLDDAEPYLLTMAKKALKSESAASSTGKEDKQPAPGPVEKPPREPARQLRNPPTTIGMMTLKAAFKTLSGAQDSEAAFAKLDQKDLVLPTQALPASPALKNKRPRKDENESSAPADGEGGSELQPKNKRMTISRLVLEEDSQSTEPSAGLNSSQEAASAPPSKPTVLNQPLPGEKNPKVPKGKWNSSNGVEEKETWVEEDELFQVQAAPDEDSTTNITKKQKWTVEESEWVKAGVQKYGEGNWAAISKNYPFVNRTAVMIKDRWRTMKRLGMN

What was measured:
[1] = biological target: telomere-binding protein TRF2 (human (endogenous in MRC5 or HT1080)) (UniProt Q15554); assay: co-IP
[2] = biological target: EZH2 (catalytic component of the PRC2 complex) (human (endogenous in HT1080)), Q15910; assay: co-IP; details: remark: other sources report otherwise

binding [1]	binding [2]	Binder
binds		RE1-silencing factor (REST) (protein, UniProt Q13127 1-1097) MATQVMGQSSGGGGLFTSSGNIGMALPNDMYDLHDLSKAELAAPQLIMLANVALTGEVNGSCCDYLVGEERQMAELMPVGDNNFSDSEEGEGLEESADIKGEPHGLENMELRSLELSVVEPQPVFEASGAPDIYSSNKDLPPETPGAEDKGKSSKTKPFRCKPCQYEAESEEQFVHHIRVHSAKKFFVEESAEKQAKARESGSSTAEEGDFSKGPIRCDRCGYNTNRYDHYTAHLKHHTRAGDNERVYKCIICTYTTVSEYHWRKHLRNHFPRKVYTCGKCNYFSDRKNNYVQHVRTHTGERPYKCELCPYSSSQKTHLTRHMRTHSGEKPFKCDQCSYVASNQHEVTRHARQVHNGPKPLNCPHCDYKTADRSNFKKHVELHVNPRQFNCPVCDYAASKKCNLQYHFKSKHPTCPNKTMDVSKVKLKKTKKREADLPDNITNEKTEIEQTKIKGDVAGKKNEKSVKAEKRDVSKEKKPSNNVSVIQVTTRTRKSVTEVKEMDVHTGSNSEKFSKTKKSKRKLEVDSHSLHGPVNDEESSTKKKKKVESKSKNNSQEVPKGDSKVEENKKQNTCMKKSTKKKTLKNKSSKKSSKPPQKEPVEKGSAQMDPPQMGPAPTEAVQKGPVQVEPPPPMEHAQMEGAQIRPAPDEPVQMEVVQEGPAQKELLPPVEPAQMVGAQIVLAHMELPPPMETAQTEVAQMGPAPMEPAQMEVAQVESAPMQVVQKEPVQMELSPPMEVVQKEPVQIELSPPMEVVQKEPVKIELSPPIEVVQKEPVQMELSPPMGVVQKEPAQREPPPPREPPLHMEPISKKPPLRKDKKEKSNMQSERARKEQVLIEVGLVPVKDSWLLKESVSTEDLSPPSPPLPKENLREEASGDQKLLNTGEGNKEAPLQKVGAEEADESLPGLAANINESTHISSSGQNLNTPEGETLNGKHQTDSIVCEMKMDTDQNTRENLTGINSTVEEPVSPMLPPSAVEEREAVSKTALASPPATMAANESQEIDEDEGIHSHEGSDLSDNMSEGSDDSGLHGARPVPQESSRKNAKEALAVKAAKGDFVCIFCDRSFRKGKDYSKHLNRHLVNVYYLEEAAQGQE
	binds	RE1-silencing factor (REST), Q13127 1-1097 (protein) MATQVMGQSSGGGGLFTSSGNIGMALPNDMYDLHDLSKAELAAPQLIMLANVALTGEVNGSCCDYLVGEERQMAELMPVGDNNFSDSEEGEGLEESADIKGEPHGLENMELRSLELSVVEPQPVFEASGAPDIYSSNKDLPPETPGAEDKGKSSKTKPFRCKPCQYEAESEEQFVHHIRVHSAKKFFVEESAEKQAKARESGSSTAEEGDFSKGPIRCDRCGYNTNRYDHYTAHLKHHTRAGDNERVYKCIICTYTTVSEYHWRKHLRNHFPRKVYTCGKCNYFSDRKNNYVQHVRTHTGERPYKCELCPYSSSQKTHLTRHMRTHSGEKPFKCDQCSYVASNQHEVTRHARQVHNGPKPLNCPHCDYKTADRSNFKKHVELHVNPRQFNCPVCDYAASKKCNLQYHFKSKHPTCPNKTMDVSKVKLKKTKKREADLPDNITNEKTEIEQTKIKGDVAGKKNEKSVKAEKRDVSKEKKPSNNVSVIQVTTRTRKSVTEVKEMDVHTGSNSEKFSKTKKSKRKLEVDSHSLHGPVNDEESSTKKKKKVESKSKNNSQEVPKGDSKVEENKKQNTCMKKSTKKKTLKNKSSKKSSKPPQKEPVEKGSAQMDPPQMGPAPTEAVQKGPVQVEPPPPMEHAQMEGAQIRPAPDEPVQMEVVQEGPAQKELLPPVEPAQMVGAQIVLAHMELPPPMETAQTEVAQMGPAPMEPAQMEVAQVESAPMQVVQKEPVQMELSPPMEVVQKEPVQIELSPPMEVVQKEPVKIELSPPIEVVQKEPVQMELSPPMGVVQKEPAQREPPPPREPPLHMEPISKKPPLRKDKKEKSNMQSERARKEQVLIEVGLVPVKDSWLLKESVSTEDLSPPSPPLPKENLREEASGDQKLLNTGEGNKEAPLQKVGAEEADESLPGLAANINESTHISSSGQNLNTPEGETLNGKHQTDSIVCEMKMDTDQNTRENLTGINSTVEEPVSPMLPPSAVEEREAVSKTALASPPATMAANESQEIDEDEGIHSHEGSDLSDNMSEGSDDSGLHGARPVPQESSRKNAKEALAVKAAKGDFVCIFCDRSFRKGKDYSKHLNRHLVNVYYLEEAAQGQE
